# The full ranking holds about 33,000 sequences; the median of “E-score (-0.5 to 0.5)” is about -0.015, and the highest 2% start at about 0.3. Some of the results follow.
# Biological target: T1, Abf1 (UniProt P14164)
# T1 sequence: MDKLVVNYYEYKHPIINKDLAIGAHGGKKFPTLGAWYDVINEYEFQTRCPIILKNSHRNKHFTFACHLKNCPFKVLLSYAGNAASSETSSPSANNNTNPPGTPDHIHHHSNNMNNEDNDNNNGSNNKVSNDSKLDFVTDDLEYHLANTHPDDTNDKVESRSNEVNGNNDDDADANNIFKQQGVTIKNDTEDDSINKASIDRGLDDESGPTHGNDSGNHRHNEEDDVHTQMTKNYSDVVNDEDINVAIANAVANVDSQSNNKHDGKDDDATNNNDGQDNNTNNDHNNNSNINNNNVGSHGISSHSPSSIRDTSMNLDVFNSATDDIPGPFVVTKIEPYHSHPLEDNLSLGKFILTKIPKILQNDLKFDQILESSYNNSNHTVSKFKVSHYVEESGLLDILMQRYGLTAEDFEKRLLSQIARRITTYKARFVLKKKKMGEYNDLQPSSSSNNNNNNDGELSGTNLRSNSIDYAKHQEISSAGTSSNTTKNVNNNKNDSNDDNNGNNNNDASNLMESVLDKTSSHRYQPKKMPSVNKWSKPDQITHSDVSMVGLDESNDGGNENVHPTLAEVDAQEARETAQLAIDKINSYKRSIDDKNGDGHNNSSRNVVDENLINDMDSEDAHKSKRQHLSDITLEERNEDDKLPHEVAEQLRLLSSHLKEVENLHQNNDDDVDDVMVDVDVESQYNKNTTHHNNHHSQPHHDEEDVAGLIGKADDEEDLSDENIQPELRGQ
# Experiment: PBM E-score (8-mer binding enrichment) (E-score (-0.5 to 0.5)); higher = stronger / more preferred TF binding
# Settings: protein concentration: 200 nM; construct: GST-full length
# Summary of the method: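 Using PURExpress in vitro transcription/translation, GST-tagged yeast transcription factors were made in full-length or DNA-binding-domain form. These were applied at about 100-200 nM to double-stranded universal all-10-mer Agilent arrays, and bound protein was detected with fluorescent anti-GST. Scans were normalised with masliner before the Universal PBM Analysis Suite assigned E-scores to ungapped eight-base words pooled with their reverse complements.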
row,Sequence,PBM E-score
1,CGGCACCA,0.0755
2,GAGACGGC,0.179
3,GGAAGCTA,-0.104
4,CTGGTTGA,-0.23
5,CCAATAAA,-0.0419
6,GACCTGTA,-0.0517
7,AGTAGCGA,0.125
8,AGTCCGGA,-0.0513
9,AAAATAAT,0.223
10,CACCACGA,0.202
11,AGACACAG,-0.208
12,ACGGCATG,0.186
13,CAGTATGA,0.102
14,CGGTATGC,0.104
15,AGACACAT,-0.174
16,CCCCGTCG,0.184
17,CTCGATAA,0.0643
18,AAAAGAAC,-0.0798
19,ATAAAGGA,-0.178
20,ACATTTGG,-0.0911
21,GTAGCTGA,-0.287
22,CGAAGGTA,0.0175
23,GCACAGAC,0.0598
24,ATGTGACG,0.103
25,ACGCAGAC,-0.0327

row,Sequence,PBM E-score
1,ATGGGTGG,-0.196
2,ACCGTTCA,0.179
3,ATTATTCC,0.116
4,ACTCACAT,0.0317
5,GTGCAAGA,0.256
6,CACAGTAA,0.14
7,GTTAACCA,0.1
8,GCCCGCCC,-0.182
9,GCTGAGCA,-0.0912
10,CTTTAAGA,0.0422
11,GAGCGACA,0.156
12,GAAAGTGC,-0.178
13,ACCTACGG,-0.00975
14,AAAAATAC,0.0421
15,ACAAACTC,0.0554
16,GGATATGA,-0.00382
17,CGGAAGAG,-0.212
18,GTGAACTA,0.17
19,CTCTCGAA,-0.0477
20,TGCCGCCA,-0.0462
21,GAAGGAAC,-0.155
22,AAGTCGGA,-0.0504
23,AATCAGAT,0.12
24,GAGCGCAC,-0.206
25,GTCATATA,0.0965

# Rewritten tab-delimited: part of the list above
row	Sequence	PBM E-score
20	TGCCGCCA	-0.0462
21	GAAGGAAC	-0.155
22	AAGTCGGA	-0.0504
23	AATCAGAT	0.12
24	GAGCGCAC	-0.206

# (further entries)

row,Sequence,PBM E-score
1,GAATTTCC,0.00151
2,ATCAGGCC,-0.062
3,CGTATACG,0.195
4,AACTAGAC,0.207
5,AGCTCGAG,-0.192
6,TAGTTACA,-0.0977
7,AAGTGAAT,0.16
8,CAGTCTTC,-0.21
9,CAGAGGCG,-0.284
10,AGAATGAC,0.255
11,ACTCGCTG,-0.0846
12,GTTCCAAC,-0.156
13,ACCTCAGG,-0.0783
14,ACCAATCG,0.114
15,CACCCGGC,0.0172
16,GTCCGGAC,-0.012
17,CTCGCCAG,-0.167
18,AGGGAGGG,-0.193
19,GGCTATCA,-0.0522
20,CTCTACCA,-0.187
21,AGAGGGAT,-0.0786
22,AGTAGTGA,0.232
23,CACTCGAA,0.0748
24,AAGAGTTG,0.163
25,AGTATGCA,0.111

row,Sequence,PBM E-score
1,GCGGACAA,0.0266
2,CTTCCGGC,0.0161
3,CCTCGAGG,-0.2
4,CACTGGCC,-0.0631
5,CTCCGCAA,-0.125
6,CGTTTATA,0.196
7,AGAAGATA,0.201
8,CCATTAAA,-0.127
9,CACTATCG,0.0553
10,TGATGGCA,-0.152
11,AGCTTCGG,-0.0257
12,ATGATTGC,0.0463
13,CGATACTA,0.134
14,AGGGGTGC,-0.162
15,CATCTGAG,0.00876
16,AGGCACAC,-0.233
17,GATAAGCA,-0.00131
18,ACGCAGCA,-0.0265
19,ACGTGACC,0.0122
20,GTGAGAGA,0.0332
21,CCAGGTTA,-0.132
22,GTTCAAAA,0.0939
23,CAAAGACC,-0.00385
24,CACCCATA,-0.154
25,GATGGACA,0.00093

row,Sequence,PBM E-score
1,GAATCGGC,-0.132
2,TCCGAAAA,0.147
3,ACTCTCGG,-0.0501
4,ACACCTCA,-0.0567
5,ACCGGCTC,-0.0655
6,ACCCTGAG,-0.0689
7,ATAACTAG,0.182
8,GACGCACA,-0.0948
9,CTATGATC,0.227
10,ATGACCTA,0.235
11,CGCGCCCC,-0.193
12,AGATTAGA,0.0285
13,AAGTTCGT,0.0462
14,GAGCTGCA,-0.202
15,ATGATTCA,0.117
16,CCGTCATC,0.128
17,ACACGATC,0.25
18,CATCCGCC,-0.193
19,AGGCTGGA,-0.132
20,ACTAATCT,0.0547
21,CAGACTCC,-0.323
22,CGCCAGAC,0.00888
23,ACAAGTAA,-0.00214
24,CTTTATAC,0.219
25,GAATACCC,-0.103

row,Sequence,PBM E-score
1,CCATGACG,0.143
2,CTGCGCTA,-0.185
3,GCCGGAGA,-0.0395
4,AGACGAGC,0.138
5,GCCTCCAA,-0.121
6,GTGGTACA,0.113
7,AACAGGAG,-0.178
8,CGCGTGAC,0.303
9,TGAAATAA,0.215
10,CTAAAATC,-0.0564
11,GCTTTTAA,-0.115
12,TCGCGAAA,0.2
13,CCGCATCG,-0.126
14,TACGAGAA,0.291
15,AGTAGAAT,-0.0946
16,CTGGTCTA,-0.141
17,GCCGACTA,0.101
18,CGACATCC,0.121
19,AGATTTCC,-0.152
20,AAGGCAAA,0.0203
21,ACGTTCTA,0.0602
22,ACCGCTTG,0.0321
23,CAACGGGA,0.00287
24,CAACCCCC,-0.266
25,CGGCCCGA,-0.0802

row,Sequence,PBM E-score
1,AACGCAAG,0.0166
2,CAAGTCCA,-0.138
3,CGAATAAG,-0.19
4,CAACACGA,0.107
5,GTATCGTA,0.246
6,GCCTACGA,0.239
7,ACCACGCC,-0.159
8,TCGACCGA,-0.0251
9,ACCATTGA,-0.16
10,AAGCAAGA,-0.00701
11,TAAGTCAA,-0.134
12,GACAATCC,0.0976
13,CTTATAGA,-0.0474
14,ATGCTAGC,0.00665
15,AGTACTGA,-0.0709
16,ACCGGGCG,-0.0884
17,CAATTGGA,-0.0786
18,ATGGTTTC,-0.0221
19,CACATTCA,-0.0832
20,CCAAAAAC,0.143
21,AGATCTCG,-0.0282
22,CAGACCGC,-0.0722

# Looked up one by one from the list above:
row,Sequence,PBM E-score
21,AGATCTCG,-0.0282
7,ACCACGCC,-0.159
16,ACCGGGCG,-0.0884

# From the supplement of paper PMC3334620
